# Reference: patent publication US20240271152A1, “ENHANCING NITROGEN FIXATION WITH FUN” (Aarhus Universitet, published 2024)
# No constants are given. Whether binding was seen depends on the method and setting. Some results given as binding are weak or reduced against the parent protein; the word gives no strength. For some assays here: Tags and fused reporters may be left off the sequences shown.
# Key:
# [1] = target: FUN sensor with the zipper domain (residues 178-480), N-terminally tagged with 7xHis and GB1 (Lotus japonicus); experiment: dynamic light scattering with and without 100 µM ZnCl2; self-association
# [2] = target: FUN sensor with the zipper domain (residues 178-480), N-terminally tagged with 7xHis and GB1 (Lotus japonicus); experiment: dynamic light scattering, 100 µM ZnCl2, reversed with 5 mM EDTA; self-association
# [3] = target: FUN sensor domain (residues 244-480) of Lotus japonicus FUN (Lotus japonicus); experiment: summary of DLS, SAXS and EM on the sensor domain
# [4] = target: FUN sensor domain (residues 244-480) of Lotus japonicus FUN (Lotus japonicus); experiment: SAXS, self-association with zinc; reversed by EDTA
# [5] = target: FUN sensor domain (residues 244-480) of Lotus japonicus FUN (Lotus japonicus); experiment: dynamic light scattering, ZnCl2 dose-response, self-association
# [6] = target: FUN sensor domain (residues 244-480) of Lotus japonicus FUN (Lotus japonicus); experiment: self-association (filamentation) of the purified sensor domain; DLS, SAXS, EM
# [7] = target: FUN sensor domain (residues 244-480) of Lotus japonicus FUN (Lotus japonicus); experiment: self-association with zinc; legend to the schematic in FIGS. 3C-3G (DLS, SAXS)
# [8] = target: FUN sensor domain (residues 244-480) of Lotus japonicus FUN (Lotus japonicus); experiment: negative stain electron microscopy; filaments disassembled when zinc was removed with EDTA
binding [1],binding [2],binding [3],binding [4],binding [5],binding [6],binding [7],binding [8],Binder
binds,binds,,,,,,,"FUN sensor with the zipper domain (residues 178-480), N-terminally tagged with 7xHis and GB1 (protein, not shown: small tags and cut ends) EDQKILRRLAQNREAAKKSRLRKKAYVQQLENSRLKLVQLEQELQRARQQGVFMASPGDQSHLAVGGANGASAFDMEYAHWVDEHQRLLTDLRSALNSQMGDNELHLLVDGVMAHYDELFRLKSLGAKADVFHMHSGLWKTPAERCFMWLGGFRSTELLKIVKNHLEPLTEPQLMGIDNLLRCAQQGEDALTQGMEALQQALVDTLSSTSLGPAGAGNVADYMGQMAIAMGKLATLESFLHSADLVKQQTLQQLQRILTTRQMARALLVRNDYISRLRALSSLWLARPRESSVMSSLPPSNIE"
,,binds,binds,binds,binds,binds,binds,FUN sensor domain (residues 244-480) of Lotus japonicus FUN (protein) GANGASAFDMEYAHWVDEHQRLLTDLRSALNSQMGDNELHLLVDGVMAHYDELFRLKSLGAKADVFHMHSGLWKTPAERCFMWLGGFRSTELLKIVKNHLEPLTEPQLMGIDNLLRCAQQGEDALTQGMEALQQALVDTLSSTSLGPAGAGNVADYMGQMAIAMGKLATLESFLHSADLVKQQTLQQLQRILTTRQMARALLVRNDYISRLRALSSLWLARPRESSVMSSLPPSNIE
